Reference: US20110009454A1, “COMPOSITION FOR AGRICULTURAL USE FOR CONTROLLING OR PREVENTING PLANT DISEASES CAUSED BY PLANT PATHOGENS” (SUMITOMO CHEMICAL COMPANY, LIMITED, priority 2008, published 2011)
Some results were stated once for a whole list of compounds, not compound by compound.

System: Wheat Leaf Blotch (Septoria tritici)
Experiment: Test Example 2: preventing infection by wheat leaf blotch, foliage application
Format: in vivo
Conditions: 500 ppm, inoculation two days later, wheat (Apogee), 3 days high humidity then 14 to 18 days illumination

Structure (SMILES) | affected areas of treated plants relative to affected areas of untreated plants
Nc1nc(N)c(C(=O)NCc2ccc(Oc3ccccc3)cc2)cc1F [compound 54] | ≤ 30%
Nc1ncccc1C(=O)NCc1ccc(Oc2ccc(F)c(Cl)c2)cc1 [compound 115, N-[4-(3-chloro-4-fluorophenoxy)phenyl]methyl-2-aminonicotinic acid amide] | ≤ 30%
CCc1cccc(Oc2ccc(CNC(=O)c3cccnc3N)cc2)c1 [compound 122, N-[4-(3-ethylphenoxy)phenyl]methyl-2-aminonicotinic acid amide] | ≤ 30%
Nc1ncccc1C(=O)NCc1ccc(Oc2cc(Cl)cc(Cl)c2)cc1 [compound 127, N-[4-(3,5-dichlorophenoxy)phenyl]methyl-2-aminonicotinic acid amide] | ≤ 30%
Cc1ccc(Oc2cccc(CNC(=O)c3cccnc3N)c2)cc1 [compound 134, N-[3-(4-methylphenoxy)phenyl]methyl-2-aminonicotinic acid amide] | ≤ 30%
Nc1ncccc1C(=O)NCc1ccc(Oc2cccc(Cl)c2)cc1 [compound 175, N-[4-(3-chlorophenoxy)phenyl]methyl-2-aminonicotinic acid amide] | ≤ 30%
Nc1ncccc1C(=O)NCc1ccc(Oc2cccc(F)c2)cc1 [compound 176, N-[4-(3-fluorophenoxy)phenyl]methyl-2-aminonicotinic acid amide] | ≤ 30%
Nc1ncccc1C(=O)NCc1ccc(Oc2cccc(OC(F)(F)F)c2)cc1 [compound 179, N-[4-(3-trifluoromethoxyphenoxy)phenyl]methyl-2-aminonicotinic acid amide] | ≤ 30%
Nc1ncccc1C(=O)NCc1ccc(Oc2ccccc2C(F)(F)F)cc1 [compound 183, N-[4-(2-methoxyphenoxy)phenyl]methyl-2-aminonicotinic acid amide] | ≤ 30%
Cc1cc(C)c(C(=O)NCc2ccc(Oc3ccccc3)cc2)c(N)n1 [compound 185, N-(4-phenoxyphenyl)methyl-2-amino-4,6-dimethylnicotinic acid amide] | ≤ 30%
Nc1ncccc1C(=O)NCc1cccc(Oc2ccccc2Cl)c1 [compound 203, N-[3-(2-chlorophenoxy)phenyl]methyl-2-aminonicotinic acid amide] | ≤ 30%
Nc1ncccc1C(=O)NCc1cccc(Oc2cccc(Cl)c2)c1 [compound 204, N-[3-(3-chlorophenoxy)phenyl]methyl-2-aminonicotinic acid amide] | ≤ 30%
Nc1ncccc1C(=O)NCc1cccc(Oc2cccc(C(F)(F)F)c2)c1 [compound 205, N-[3-(3-trifluoromethylphenoxy)phenyl]methyl-2-aminonicotinic acid amide] | ≤ 30%
Nc1ncccc1C(=O)NCc1cccc(Oc2cccc(OC(F)(F)F)c2)c1 [compound 206, N-[3-(3-trifluoromethoxyphenoxy)phenyl]methyl-2-aminonicotinic acid amide] | ≤ 30%
CCc1cccc(Oc2cccc(CNC(=O)c3cccnc3N)c2)c1 [compound 208, N-[3-(3-ethylphenoxy)phenyl]methyl-2-aminonicotinic acid amide] | ≤ 30%
Nc1ncccc1C(=O)NCc1cccc(Oc2ccc(F)cc2)c1 [compound 211, N-[3-(4-fluorophenoxy)phenyl]methyl-2-aminonicotinic acid amide] | ≤ 30%
Nc1ncccc1C(=O)NCc1cccc(Oc2ccc(Cl)cc2)c1 [compound 212, N-[3-(4-chlorophenoxy)phenyl]methyl-2-aminonicotinic acid amide] | ≤ 30%
Nc1ncccc1C(=O)NCc1cccc(Oc2ccc(OC(F)(F)F)cc2)c1 [compound 213, N-[3-(4-trifluoromethoxyphenoxy)phenyl]methyl-2-aminonicotinic acid amide] | ≤ 30%
Nc1ncccc1C(=O)NCc1ccccc1F [compound 229, N-(2-fluorophenyl)methyl-2-aminonicotinic acid amide] | ≤ 30%
Nc1ncccc1C(=O)NCc1cc(F)cc(F)c1 [compound 238, N-(3,5-difluorophenyl)methyl-2-aminonicotinic acid amide] | ≤ 30%

Structure (SMILES) | affected areas of treated plants relative to affected areas of untreated plants
Nc1ncccc1C(=O)NCc1cccc(Oc2ccc(C(F)(F)F)cc2)c1 [compound 247, N-[3-(4-trifluoromethylphenoxy)phenyl]methyl-2-aminonicotinic acid amide] | ≤ 30%
Nc1ncccc1C(=O)NCc1ccc(Oc2cccc(C(F)(F)F)c2)s1 [compound 249, N-[5-(3-trifluoromethylphenoxy)thiophen-2-yl]methyl-2-aminonicotinic acid amide] | ≤ 30%
CCCOc1ccc(C(=O)NCc2ccc(Oc3ccccc3)cc2)c(N)n1 [compound 252, N-(4-phenoxyphenyl)methyl-2-amino-6-propoxynicotinic acid amide] | ≤ 30%
Nc1ncccc1C(=O)NCc1cccc(Oc2ccccc2C(F)(F)F)c1 [compound 265, N-[3-(2-trifluoromethylphenyloxy)phenyl]methyl-2-aminonicotinic acid amide] | ≤ 30%
COCc1ccc(C(=O)NCc2cccc(Oc3ccccc3)c2)c(N)n1 [compound 266, N-(3-phenoxyphenyl)methyl-2-amino-6-methoxymethylnicotinic acid amide] | ≤ 30%
COCc1ccc(C(=O)NCc2cccc(Oc3cccc(F)c3)c2)c(N)n1 [compound 268, N-[3-(3-fluorophenyloxy)phenyl]methyl-2-amino-6-methoxymethylnicotinic acid amide] | ≤ 30%
COCc1ccc(C(=O)NCc2cccc(Oc3ccc(F)cc3)c2)c(N)n1 [compound 269, N-[3-(4-fluorophenyloxy)phenyl]methyl-2-amino-6-methoxymethylnicotinic acid amide] | ≤ 30%
COCc1ccc(C(=O)NCc2cccc(Oc3ccc(OC(F)(F)F)cc3)c2)c(N)n1 [compound 272, N-[3-(4-trifluoromethoxyphenyloxy)phenyl]methyl-2-amino-6-methoxymethylnicotinic acid amide] | ≤ 30%
COCc1ccc(C(=O)NCc2cccc(Oc3ccc(Cl)cc3)c2)c(N)n1 [compound 273, N-[3-(4-chlorophenyloxy)phenyl]methyl-2-amino-6-methoxymethylnicotinic acid amide] | ≤ 30%
COCc1ccc(C(=O)NCc2cccc(Oc3ccc(C)cc3)c2)c(N)n1 [compound 275, N-[3-(4-methylphenyloxy)phenyl]methyl-2-amino-6-methoxymethylnicotinic acid amide] | ≤ 30%
COCc1ccc(C(=O)NCc2cccc(Oc3ccccc3OC)c2)c(N)n1 [compound 276, N-[3-(2-methoxyphenyloxy)phenyl]methyl-2-amino-6-methoxymethylnicotinic acid amide] | ≤ 30%
Nc1nc(F)ccc1C(=O)NCc1cccc(Oc2ccccc2)c1 [compound 282, N-(3-phenoxy)phenylmethyl-2-amino-6-fluoronicotinic acid amide] | ≤ 30%
Nc1nc(F)ccc1C(=O)NCc1cccc(Oc2ccc(F)cc2)c1 [compound 284, N-[3-(4-fluorophenyloxy)phenyl]methyl-2-amino-6-fluoronicotinic acid amide] | ≤ 30%
Nc1nc(F)ccc1C(=O)NCc1cccc(Oc2cccc(C(F)(F)F)c2)c1 [compound 287, N-[3-(3-trifluoromethylphenyloxy)phenyl]methyl-2-amino-6-fluoronicotinic acid amide] | ≤ 30%
Cc1ccc(C(=O)NCc2cccc(Oc3cccc(F)c3)c2)c(N)n1 [compound 297, N-[3-(3-fluorophenyloxy)phenyl]methyl-2-amino-6-methylnicotinic acid amide] | ≤ 30%
Cc1ccc(Oc2cccc(CNC(=O)c3ccc(C)nc3N)c2)cc1 [compound 302, N-[3-(4-methylphenyloxy)phenyl]methyl-2-amino-6-methylnicotinic acid amide] | ≤ 30%
Cc1ccc(C(=O)NCc2cccc(Oc3cccc(C(F)(F)F)c3)c2)c(N)n1 [compound 304, N-[3-(3-trifluoromethylphenyloxy)phenyl]methyl-2-amino-6-methylnicotinic acid amide] | ≤ 30%
COc1cccc(Oc2cccc(CNC(=O)c3ccc(C)nc3N)c2)c1 [compound 307, N-[3-(3-methoxyphenyloxy)phenyl]methyl-2-amino-6-methylnicotinic acid amide] | ≤ 30%
Cc1ccc(C(=O)NCc2cccc(Oc3cccc(OC(F)(F)F)c3)c2)c(N)n1 [compound 308, N-[3-(3-trifluoromethoxyphenyloxy)phenyl]methyl-2-amino-6-methylnicotinic acid amide] | ≤ 30%
Nc1ncccc1C(=O)NCc1ccc(Oc2ccc(C(F)(F)F)cc2Cl)cc1 [compound 313, N-[4-(2-chloro-4-trifluoromethylphenyloxy)phenyl]methyl-2-aminonicotinic acid amide] | ≤ 30%
